Reference: PubChem BioAssay AID602196 (INSERM, 2012)
This is one part, drawn at random, of about 23,000 deposited reagents. Over the whole deposit, 455 (2%) got an active call. 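Active includes both protection and sensitisation; some change values fall well beyond the stated -50 to +50 range.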 Entries without a mark were called inactive. Not all columns of the deposit are shown. The record does not give: the amount of reagent.

Test: 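Genes whose knock-down alters cisplatin killing of lung cancer cells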
Cell system: human A549 lung cancer cells
Reagents: siRNA pair against human genes
Duration: 48 h transfection before cisplatin; time from cisplatin to read-out not stated
Conditions: cisplatin at a dose killing half of control-siRNA cells; exact dose and duration not given
Measurement: 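Shift in cisplatin death relative to control siRNA, from -50 (all cells die) to +50 (no cells die); siRNAs harmful on their own scored 0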
Reading the numbers: two-siRNA summed score (-2 to +2): higher = both siRNAs protect from cisplatin killing; -2 means both sensitise
Call rule: 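Each siRNA scores 0 if harmful alone by LDH or WST-1, otherwise +1 if it reduces and -1 if it increases cisplatin killing; a gene is active when both siRNAs agree (sum +2 or -2)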
Calls: active = both siRNAs shift cisplatin killing the same way; inactive = no consistent shift, or siRNA harmful alone

{"Gene": "NEIL1", "two-siRNA summed score (-2 to +2)": 0}
{"Gene": "TEX10", "two-siRNA summed score (-2 to +2)": -1}
{"Gene": "RRH", "two-siRNA summed score (-2 to +2)": 1}
{"Gene": "LOC402028", "two-siRNA summed score (-2 to +2)": 1}
{"Gene": "ACTN1", "two-siRNA summed score (-2 to +2)": 0}
{"Gene": "TSG101", "two-siRNA summed score (-2 to +2)": 0}

Look-ups from above:
LOC402028, two-siRNA summed score (-2 to +2) = 1
TSG101, two-siRNA summed score (-2 to +2) → 0

Further entries follow:
{"Gene": "LOC440153", "two-siRNA summed score (-2 to +2)": -1}
{"Gene": "FAM228B", "two-siRNA summed score (-2 to +2)": 0}
{"Gene": "LOC148915", "two-siRNA summed score (-2 to +2)": 0}
{"Gene": "CD19", "two-siRNA summed score (-2 to +2)": 0}
{"Gene": "RPL27A", "two-siRNA summed score (-2 to +2)": 0}
{"Gene": "AHSP", "two-siRNA summed score (-2 to +2)": 0}
